One assay deals with ApoE3 (UniProt P02649). The experiment in a line: ELISA; controls for the FH5-7 fragment: binding to ApoE and heparin (positive), BSA (negative); both purified.
The target in assay [1] is T1, Factor H binding protein A (FhbA) from Borrelia hermsii, wild type (Borrelia hermsii YOR) (UniProt W5SB08).
T1 sequence: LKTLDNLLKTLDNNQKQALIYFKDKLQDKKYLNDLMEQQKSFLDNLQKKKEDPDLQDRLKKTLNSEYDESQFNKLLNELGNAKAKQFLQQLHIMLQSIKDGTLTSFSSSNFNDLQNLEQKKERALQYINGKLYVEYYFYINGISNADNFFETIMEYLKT
The experiment in a line: ELISA; BhFhbA or BdFhbA (1 ug/ml) coated on plates, FH19-20 or FH5-7 added in serial dilutions, detected by polyclonal anti-FH (or monoclonal VIG8); both purified.

By UniProt entry, the sequences of proteins in these tests, tags left out. Where a name states a change or a piece, a line headed by the entry shows the natural chain unless it says otherwise. Residues count along the entry.
UniProt P02649, residues 19-317: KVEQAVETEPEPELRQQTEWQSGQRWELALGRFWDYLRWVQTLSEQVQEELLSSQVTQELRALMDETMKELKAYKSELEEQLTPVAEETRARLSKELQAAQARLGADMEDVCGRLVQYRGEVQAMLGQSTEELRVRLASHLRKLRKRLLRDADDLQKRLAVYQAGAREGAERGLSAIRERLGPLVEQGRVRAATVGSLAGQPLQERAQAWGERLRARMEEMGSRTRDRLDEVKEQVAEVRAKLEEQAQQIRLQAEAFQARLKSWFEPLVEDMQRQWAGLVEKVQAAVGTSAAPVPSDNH
UniProt P08603: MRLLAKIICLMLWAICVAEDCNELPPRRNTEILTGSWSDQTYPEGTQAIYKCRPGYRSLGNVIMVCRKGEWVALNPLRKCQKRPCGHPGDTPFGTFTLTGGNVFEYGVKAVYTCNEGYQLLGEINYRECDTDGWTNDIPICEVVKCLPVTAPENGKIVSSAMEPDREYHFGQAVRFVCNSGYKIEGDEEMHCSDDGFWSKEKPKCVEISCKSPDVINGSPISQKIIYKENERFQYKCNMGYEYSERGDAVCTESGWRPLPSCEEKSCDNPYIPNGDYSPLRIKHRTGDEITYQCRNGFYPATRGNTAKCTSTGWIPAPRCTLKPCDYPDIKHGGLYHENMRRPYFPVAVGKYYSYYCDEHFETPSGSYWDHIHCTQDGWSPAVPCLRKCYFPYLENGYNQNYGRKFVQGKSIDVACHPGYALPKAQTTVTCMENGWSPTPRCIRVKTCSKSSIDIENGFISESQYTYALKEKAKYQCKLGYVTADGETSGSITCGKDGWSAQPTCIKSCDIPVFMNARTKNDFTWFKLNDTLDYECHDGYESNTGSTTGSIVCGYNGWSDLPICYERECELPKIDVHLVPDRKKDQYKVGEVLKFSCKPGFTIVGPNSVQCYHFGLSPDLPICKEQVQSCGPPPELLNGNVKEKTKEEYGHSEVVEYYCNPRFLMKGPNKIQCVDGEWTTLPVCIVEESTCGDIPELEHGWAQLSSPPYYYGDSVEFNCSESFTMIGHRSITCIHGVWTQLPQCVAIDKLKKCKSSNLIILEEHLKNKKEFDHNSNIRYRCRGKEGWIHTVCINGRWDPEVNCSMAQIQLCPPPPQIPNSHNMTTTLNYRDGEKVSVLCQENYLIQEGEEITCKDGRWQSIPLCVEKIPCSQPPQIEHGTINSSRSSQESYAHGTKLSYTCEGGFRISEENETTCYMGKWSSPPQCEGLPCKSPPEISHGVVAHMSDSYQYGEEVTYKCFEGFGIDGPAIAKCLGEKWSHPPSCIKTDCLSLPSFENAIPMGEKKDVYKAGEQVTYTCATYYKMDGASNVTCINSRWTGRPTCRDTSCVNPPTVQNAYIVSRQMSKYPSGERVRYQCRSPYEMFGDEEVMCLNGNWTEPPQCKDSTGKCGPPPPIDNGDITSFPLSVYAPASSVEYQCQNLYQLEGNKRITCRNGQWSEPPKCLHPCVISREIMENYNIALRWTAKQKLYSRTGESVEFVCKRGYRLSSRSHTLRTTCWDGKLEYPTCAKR

No constants are given. Whether binding was seen depends on the method and setting. Binding can be weak; no strength is given.

Regarding “Factor H domains 5-7 (from UniProt P08603) (domain or fragment)”, the results for the binding result (with ApoE3; in assay [1]) were “binds” and “binds weakly”, respectively.

The values above are taken from paper PMC8967061.
